Source: article PMC8187452
Results are given in words; binding and its absence hold for the method and conditions named. In cells and extracts the contact can be indirect. Here binding means that the protein was enriched with, or labelled near, the bait; the list need not be complete.

Chains of the proteins cited; added tags and fusions are not shown.
UniProt O80982: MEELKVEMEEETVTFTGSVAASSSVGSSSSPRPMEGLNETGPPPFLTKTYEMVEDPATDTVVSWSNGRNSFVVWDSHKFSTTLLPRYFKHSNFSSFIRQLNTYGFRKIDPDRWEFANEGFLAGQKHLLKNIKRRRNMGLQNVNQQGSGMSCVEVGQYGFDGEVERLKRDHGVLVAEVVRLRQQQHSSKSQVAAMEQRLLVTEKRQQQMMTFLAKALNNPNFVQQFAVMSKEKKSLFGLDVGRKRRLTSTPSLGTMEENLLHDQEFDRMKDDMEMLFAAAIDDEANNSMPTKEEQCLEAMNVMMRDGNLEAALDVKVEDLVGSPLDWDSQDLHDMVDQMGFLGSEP

Legend:
[1] = target: HSFA2-YFP expressed from pHSFA2::HSFA2-YFP (A. thaliana) (UniProt O80982); assay: affinity purification with mass spectrometry; HSFA2-YFP complexes isolated from seedlings under no-HS conditions, 45 min and 3 h after 1 h HS at 37 °C; trypsin digest, Q Exactive Plus
[2] = target: HSFA2-YFP expressed from pHSFA2::HSFA2-YFP (A. thaliana) (UniProt O80982); assay: affinity purification with mass spectrometry; Co-IP/MS of HSFA2-YFP in the hsfa3 mutant background, without HS or 4 h after ACC; Trypsin/Lys-C digest, Q Exactive HF

B1: HSFA7B (endogenous) (protein, UniProt Q9M1V5 1-282)
chain: MDPSSSSRARSMPPPVPMEGLQEAGPSPFLTKTFEMVGDPNTNHIVSWNRGGISFVVWDPHSFSATILPLYFKHNNFSSFVRQLNTYGFRKIEAERWEFMNEGFLMGQRDLLKSIKRRTSSSSPPSLNYSQSQPEAHDPGVELPQLREERHVLMMEISTLRQEEQRARGYVQAMEQRINGAEKKQRHMMSFLRRAVENPSLLQQIFEQKRDREEAAMIDQAGLIKMEEVEHLSELEALALEMQGYGRQRTDGVERELDDGFWEELLMNNENSDEEEANVKQD
For B1, which binding [1] is on record?
The binding was “binds”.

What about the binding [2] of the same binder?
The binding was “binds”.
